Results of single-concentration screens

Sequences of proteins named here, by UniProt entry; tags and fusion partners are left off.
UniProt P9WPC5, whole entry: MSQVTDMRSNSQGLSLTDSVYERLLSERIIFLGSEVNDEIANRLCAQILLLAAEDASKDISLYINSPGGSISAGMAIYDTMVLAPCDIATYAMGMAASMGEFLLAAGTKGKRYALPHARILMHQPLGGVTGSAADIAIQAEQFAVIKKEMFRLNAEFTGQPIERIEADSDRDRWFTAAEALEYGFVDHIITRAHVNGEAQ
UniProt P9WPC3, whole entry partner: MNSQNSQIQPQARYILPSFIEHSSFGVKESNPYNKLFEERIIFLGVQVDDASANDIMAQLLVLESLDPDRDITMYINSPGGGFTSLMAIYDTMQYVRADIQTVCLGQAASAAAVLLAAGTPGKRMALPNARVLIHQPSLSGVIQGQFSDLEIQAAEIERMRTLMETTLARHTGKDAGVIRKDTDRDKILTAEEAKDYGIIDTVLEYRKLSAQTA

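Protease assay of ClpP1P2, read by the AMC dye that it sets free. Target: ClpP1P2, Mycobacterium tuberculosis (UniProt P9WPC5 and UniProt P9WPC3). Tested at 50 µM. Higher reads as stronger inhibition, judged from the few compounds that gave an IC50. Most other retested compounds had strongly negative values. Size under these conditions: about 69,000 compounds, about 10 of them at 50% or above in at least one test.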

Each number is a percent effect as filed. The controls that fix the scale are not given in the record; negative values are as filed. The compounds are a random part of those screened.

structure | effect
Cc1nc(CN2CCCC(NCCCOc3ccc(F)cc3)C2)no1 (stereo not shown) | -7.586%
CCCc1cc(N2CCC(NCCc3ccc(O)cc3)CC2)nc(C)n1 | -24.22%
Cc1n[nH]c(C2CN(C(=O)c3ccc4c(c3)COC4)CCO2)n1 (stereo not shown) | -14.06%
CNC(=O)[C@@H]1C[C@@H](NC(=O)CSc2ccccc2)CN1C1CCOCC1 | -1.771%
CNC(=O)c1cn2cc(-c3cccc(Cl)c3)n(CC3CC3)c(=O)c2n1 | 2.286%
O=C(Cc1ccsc1)N1C[C@@H]2OCCN(CC3CCCO3)[C@@H]2C1 (stereo partly shown) | -6.329%
O=C(C(c1ccccc1)S(=O)(=O)c1ccccn1)N1CCCC1 (stereo not shown) | 10.15%
Cc1cccnc1CNC(=O)N(CCCO)C1CCc2ccccc21 (stereo not shown) | -25.23%
Cn1ncc2c(N3CCN4CCCCC4C3)nc(C3CCCC3)nc21 (stereo not shown) | -4.249%
CC(C)c1nnc(CCC(=O)N2CCOC(c3cnccn3)C2)o1 (stereo not shown) | -6.323%
CN(c1ncccc1C#N)C1CCN(Cc2ccncc2)CC1 | -2.347%
O=C(c1cccnc1)N1CCCC(c2cc(C(F)F)n3ncnc3n2)C1 (stereo not shown) | 4.541%
CC(C)(C)CNC1(Cc2cc(C(C)(C)O)on2)COC1 | -5.39%
CN(CC(=O)NCCc1ccccn1)C(=O)c1cccs1 | 5.35%
CC(C)(C)OC(=O)N1CCC(NC2CCS(=O)(=O)C2)CC1 (stereo not shown) | -8.27%
Cc1cnc(NC(C)Cc2cccnc2)nc1N(C)C (stereo not shown) | -2.954%
CC(O)CN1CCC(CNCc2cccc(C(F)(F)F)c2)CC1 (stereo not shown) | -14.09%
Cc1ncc(CNC(=O)Cc2ccsc2)c(C2CCCN2C)n1 (stereo not shown) | 10.07%
CCCC(=O)N1CCC(Nc2ncc(Br)cn2)CC1 | -0.8605%
CCc1noc(C)c1C(=O)NCc1ccccn1 | -1.153%
Cn1nc2c(cc1=O)CN(Cc1nc(-c3ccoc3)no1)CC2 | -4.017%
Cc1nn(CCO)c(C)c1CNC1CCOc2ccccc21 (stereo not shown) | -4.333%
CCOc1cc(CNC(=O)c2cc(-c3ccccn3)no2)ccn1 | 1.489%
CCc1cc(O)n2nc(C3CCN(C(=O)c4ccccn4)CC3)cc2n1 | 0.2061%
CN(C)C(C(=O)NCC1(Cn2cccn2)CC1)c1ccc(F)cc1 (stereo not shown) | 5.692%
CCn1ncc2c1C(COC)CN(Cc1ccco1)C2 (stereo not shown) | -12.15%
OC[C@@H]1CN2CCN(c3ccccn3)C[C@@H]2[C@H]1c1ccccc1 | -6.466%
CCOc1ccnc(N2CCN(C(=O)c3cn[nH]c3CC)CC2)n1 | -14.76%
Cc1ccc(-c2nnc(CN3CCCC(O)(CO)CC3)o2)n1C (stereo not shown) | -3.098%
CC(C)OCCCNC(=O)CN1CCN(c2nccs2)C(C)C1 (stereo not shown) | 14.8%
Cc1cccc(CS(=O)(=O)NCC(O)Cc2ccccc2)c1 (stereo not shown) | -17.76%
CCCNC(=O)c1cccc(CNCc2csc(C(C)(C)C)n2)c1 | -9.382%
CCc1csc(CNC2CCN(Cc3ccccc3)C2)n1 (stereo not shown) | -27.43%
COc1ccc(C(O)CNC(=O)Cn2ccc(=O)n(C)c2=O)cc1 (stereo not shown) | 6.462%
CC(C)c1noc(CN(Cc2ccccc2F)C2CC2)n1 | 13.95%
CN(C)CC1CSCCCN1S(=O)(=O)Cc1cccc(F)c1 (stereo not shown) | -10.26%
CNC(=O)c1cc(-n2ccnc2-c2cnc(N(C)C)nc2)ccc1OC | 19.33%
CSCCCN1CC[C@@H](NC(=O)c2cnccn2)[C@H](O)C1 | -14.31%
CCOCc1ncn2c1CN(C(=O)Nc1cccc(F)c1)CC2 | -10.8%
Cn1ccnc1CN1CCN(Cc2cc(-c3ccccc3)no2)CC1 | 0.3781%
c1ccc(CCN2CCCC2c2cccc(Nc3nccs3)n2)cc1 (stereo not shown) | 5.514%
CCOc1ncccc1NC(=O)c1cccs1 | -17.33%
CC(C)CN1C(=O)C2(CCN(CC3CCOCC3)C2)c2ccccc21 (stereo not shown) | -15.16%
COc1cc(CN2CCC3(CC2)[C@H](O)C[C@@H]3OCCO)ccc1F | -8.238%
CCN1CCC2(CC1)OCCN2C(=O)c1cc(Cl)c(OC)c(Cl)c1 | -1.347%
Cn1ccc2c(-c3cc(N)nc(N4CCOCC4)n3)ccnc21 | -181.1%
Cc1cc(C(=O)N2C[C@H]3CC[C@@H]2CN(C(=O)c2ccncc2)C3)cs1 | 4.682%
CN(C)C(=O)NCc1ncn2c1CN(Cc1cccs1)CCC2 | 0.2565%
N#Cc1cccc(C(=O)N2CC(c3nc(-c4cccnc4)no3)C2)c1 | 5.459%
CCOCC1CN(S(=O)(=O)N(C)C)Cc2cnn(CC)c21 (stereo not shown) | -13.91%
Cn1cc(CN2CC[C@H]3OCC[C@@H](C(=O)N4CCCCO4)[C@@H]3C2)cn1 | -0.5001%
CC(C)(C)c1nc(CN2CCCC(Cn3cncn3)C2)no1 (stereo not shown) | -5.602%
CN(C(=O)Nc1ccccn1)C1CCCN(c2ccccc2)C1=O (stereo not shown) | 3.516%
O=C(Cc1ccc(F)cc1)NCc1ccc(C(=O)O)o1 | -10.53%
Cc1cccc(C(C(=O)NC(C)(C)CN2CCOCC2)N(C)C)c1 (stereo not shown) | 16.4%
CC1(C)CC(=O)N(CC(=O)Nc2ccon2)c2ccccc21 | 10.57%
CN1CCN(c2ncnc3c2CCN(S(=O)(=O)C2CC2)CC3)CC1 | 4.38%
CC(C)CNC(=O)c1cc(C2CC2)nc2onc(C3CCNCC3)c12 | -9.019%
CC(=O)Nc1ncc(S(=O)(=O)N2CCCC(C)C2)s1 (stereo not shown) | -6.762%
Cn1cc(C(=O)NCc2cn3c(n2)CN(CC2CCCC2)CC3)cn1 | 5.9%
CSCC(C)(O)CNS(=O)(=O)Cc1ccc(F)cc1 (stereo not shown) | -15.97%
Cc1nc(C)n(CC2CCCN(CCC(=O)N3CCCCC3)C2)n1 (stereo not shown) | -7.261%
Cn1ccnc1CNC(=O)CCc1cccc(F)c1 | 3.528%
Cc1nnsc1CNC(=O)c1ccc2c(c1)nc(N1CCOCC1)n2C | -28.48%
Cc1nc(N(C)C)ncc1C(=O)N[C@@H]1CCc2ccccc21 | -9.153%
O=C(c1csc(-c2ccco2)n1)N1CCOc2ncccc21 | -3.184%
O=C(NCCCOCC1CC1)Nc1ccc(F)cc1 | 7.174%
CN1CCC(Cc2noc(-c3cccc(OCC(N)=O)c3)n2)CC1 | 7.586%
c1ccc(C2(NCC3CNc4ccnn4C3)CCC2)cc1 (stereo not shown) | 10.18%
CC(C)NC(=O)NCCn1nc(C(F)(F)F)n(C)c1=O | -3.047%
CNC(=O)c1cccnc1Oc1ccccc1 | 18.41%
Cc1ccnn1-c1ccc(C(=O)N2CCCC(n3ccnc3)C2)cc1 (stereo not shown) | -2.833%
O=C(NCC(O)c1ccoc1)Nc1c(F)cccc1F (stereo not shown) | -16.92%
COC[C@]12COC[C@H]1CN(C(=O)c1ccc(F)cc1C)C2 | -4.6%
Cc1ccc(C(C(=O)N2CCN(C(=O)c3ccc[nH]3)CC2)N(C)C)cc1 (stereo not shown) | -9.955%
CC(C)CNC(=O)CC1(Cn2cnnn2)CCCCC1 | -14.04%
COc1cccc(CCC2CCCN(C(=O)c3n[nH]c4c3CCC4)C2)c1 (stereo not shown) | -15.57%
Cc1nn(C)c(C)c1C1CCCN1C(=O)c1ccc(Cl)o1 (stereo not shown) | -2.085%
O=C(C1CCOCC1)N1CC[C@@H](N2CCOCC2)[C@@H]1Cc1ccccc1 | 11.01%
CCN(CC)C(=O)NC(C)c1ccc(Oc2cccnc2)c(F)c1 (stereo not shown) | -3.039%
Cc1c(Cl)cccc1NC(=O)c1nc[nH]n1 | -16.19%
CC(C)Oc1ncccc1CNC(=O)N1CCC(n2cccc2)CC1 | -17.41%
NC(=O)C1CCCN1Cc1nccn1CC(F)(F)F (stereo not shown) | -1.746%
CCC1CN(C(=O)c2cc(C(C)=O)c(C)[nH]c2=O)CCN1C(C)C (stereo not shown) | -5.536%
Cc1cc(CNC2(CO)CCOCC2)ccc1Br | -13.91%
Cc1ccc(OC2(C(=O)NC(C)Cc3ccsc3)CCNCC2)cc1 (stereo not shown) | -15.57%
Cc1cc(C)n(CCCNC(=O)C(C)NC(=O)c2ccccc2Cl)n1 (stereo not shown) | 8.796%
CN(C)S(=O)(=O)NCc1nn(CCN2CCCC2)c(=O)c2ccccc12 | 5.705%
CCOc1ccc(S(=O)(=O)N(CCOC)Cc2ccoc2)cc1F | -13.98%

10 of the entries, repeated:

structure,effect
CC(C)CNC(=O)CC1(Cn2cnnn2)CCCCC1,-14.04%
CC(C)c1noc(CN(Cc2ccccc2F)C2CC2)n1,13.95%
Cc1cc(C)n(CCCNC(=O)C(C)NC(=O)c2ccccc2Cl)n1 (stereo not shown),8.796%
CCOCc1ncn2c1CN(C(=O)Nc1cccc(F)c1)CC2,-10.8%
O=C(Cc1ccc(F)cc1)NCc1ccc(C(=O)O)o1,-10.53%
CC(C)(C)OC(=O)N1CCC(NC2CCS(=O)(=O)C2)CC1 (stereo not shown),-8.27%
Cc1nc(N(C)C)ncc1C(=O)N[C@@H]1CCc2ccccc21,-9.153%
CC(=O)Nc1ncc(S(=O)(=O)N2CCCC(C)C2)s1 (stereo not shown),-6.762%
Cc1cccc(CS(=O)(=O)NCC(O)Cc2ccccc2)c1 (stereo not shown),-17.76%
Cc1n[nH]c(C2CN(C(=O)c3ccc4c(c3)COC4)CCO2)n1 (stereo not shown),-14.06%

Data taken from ChEMBL document CHEMBL3988442, “University of Dundee, Small-Polar-MMV Screening Library” (2021).